# From PubChem BioAssay AID504333 (National Center for Advancing Translational Sciences (NCATS), 2011)
# Chains of the proteins cited; added tags and fusions are not shown.
# UniProt Q9UIF8, whole entry: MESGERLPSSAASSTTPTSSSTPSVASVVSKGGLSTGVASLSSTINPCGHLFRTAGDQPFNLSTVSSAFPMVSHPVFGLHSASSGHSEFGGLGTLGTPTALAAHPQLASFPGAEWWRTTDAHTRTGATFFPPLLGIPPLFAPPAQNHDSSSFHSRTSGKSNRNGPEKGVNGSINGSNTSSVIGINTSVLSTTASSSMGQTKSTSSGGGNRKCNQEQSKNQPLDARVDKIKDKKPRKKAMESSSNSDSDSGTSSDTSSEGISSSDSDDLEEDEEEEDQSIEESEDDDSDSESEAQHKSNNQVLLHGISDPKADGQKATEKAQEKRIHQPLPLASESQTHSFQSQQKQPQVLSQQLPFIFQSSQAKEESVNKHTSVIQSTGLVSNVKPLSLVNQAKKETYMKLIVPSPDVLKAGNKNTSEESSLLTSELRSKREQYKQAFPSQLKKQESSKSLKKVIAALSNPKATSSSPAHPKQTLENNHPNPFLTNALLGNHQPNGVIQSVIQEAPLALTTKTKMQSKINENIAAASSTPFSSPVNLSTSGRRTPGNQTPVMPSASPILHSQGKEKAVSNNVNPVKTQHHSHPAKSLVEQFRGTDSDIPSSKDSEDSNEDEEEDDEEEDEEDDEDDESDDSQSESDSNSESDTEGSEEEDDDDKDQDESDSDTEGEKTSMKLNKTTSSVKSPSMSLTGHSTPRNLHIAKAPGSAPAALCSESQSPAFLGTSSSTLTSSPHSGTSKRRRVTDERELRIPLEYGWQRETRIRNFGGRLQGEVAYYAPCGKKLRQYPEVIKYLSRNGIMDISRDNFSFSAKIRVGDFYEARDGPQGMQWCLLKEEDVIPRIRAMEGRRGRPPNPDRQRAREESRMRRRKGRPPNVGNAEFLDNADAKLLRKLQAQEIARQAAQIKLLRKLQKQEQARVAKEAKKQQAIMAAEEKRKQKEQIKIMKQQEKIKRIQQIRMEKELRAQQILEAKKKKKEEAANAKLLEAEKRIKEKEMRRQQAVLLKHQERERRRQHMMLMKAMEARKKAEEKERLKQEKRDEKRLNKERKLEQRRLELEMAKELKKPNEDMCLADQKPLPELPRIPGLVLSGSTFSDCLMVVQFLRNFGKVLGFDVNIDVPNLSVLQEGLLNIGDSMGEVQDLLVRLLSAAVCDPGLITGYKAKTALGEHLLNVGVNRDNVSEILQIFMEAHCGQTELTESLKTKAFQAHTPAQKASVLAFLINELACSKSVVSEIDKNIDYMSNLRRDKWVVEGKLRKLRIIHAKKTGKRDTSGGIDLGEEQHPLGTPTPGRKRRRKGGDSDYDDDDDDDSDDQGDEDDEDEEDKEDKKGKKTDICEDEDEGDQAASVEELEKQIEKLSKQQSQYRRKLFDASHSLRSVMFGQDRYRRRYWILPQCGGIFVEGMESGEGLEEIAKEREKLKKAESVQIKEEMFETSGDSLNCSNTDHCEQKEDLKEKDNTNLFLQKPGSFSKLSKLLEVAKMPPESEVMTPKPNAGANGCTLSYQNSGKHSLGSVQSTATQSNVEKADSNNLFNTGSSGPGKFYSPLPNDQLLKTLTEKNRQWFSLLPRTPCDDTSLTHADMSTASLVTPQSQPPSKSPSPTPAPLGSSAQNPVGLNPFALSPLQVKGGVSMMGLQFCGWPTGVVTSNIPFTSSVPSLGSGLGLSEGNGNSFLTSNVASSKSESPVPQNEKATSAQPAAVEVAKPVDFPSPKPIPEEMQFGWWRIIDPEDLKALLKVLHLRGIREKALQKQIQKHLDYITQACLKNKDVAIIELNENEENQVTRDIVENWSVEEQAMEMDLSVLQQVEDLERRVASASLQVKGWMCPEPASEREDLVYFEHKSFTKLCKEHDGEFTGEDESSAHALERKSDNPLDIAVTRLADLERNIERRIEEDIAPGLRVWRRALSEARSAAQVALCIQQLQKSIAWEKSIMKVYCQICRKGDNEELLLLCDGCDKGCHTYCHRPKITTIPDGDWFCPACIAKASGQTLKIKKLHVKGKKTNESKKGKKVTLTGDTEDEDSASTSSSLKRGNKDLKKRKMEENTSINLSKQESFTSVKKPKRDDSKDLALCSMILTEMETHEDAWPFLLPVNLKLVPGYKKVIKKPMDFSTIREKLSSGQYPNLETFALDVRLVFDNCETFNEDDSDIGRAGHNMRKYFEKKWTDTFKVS
# Screen size: about 360,000 compounds; about 16,000 (4.4%) were called active. Only results without a clear call are listed here; the source files them as inconclusive. Calls come from the whole dose curve; as a rule, active = well fitted inhibition curve with a large enough effect; inconclusive = small, poorly fitted or top-dose-only effect; inactive = no such curve, though single readings can be large or run the other way.
# Molecular target: Bromodomain adjacent to zinc finger domain protein 2B (Homo sapiens) (UniProt Q9UIF8)
# Assay: qHTS Assay for Inhibitors of BAZ2B; note: nearly all actives have a fitted effect of over 60% in size
# Details: AlphaScreen BAZ2B-H3K14Ac peptide displacement
# Potency is the fitted concentration of half-maximal effect.
row,SMILES,Potency
1,O=C(NCC1(N2CCOCC2)CCCCC1)c1ccc(Cl)cc1,inconclusive: 89.1 µM
2,CCOc1ccc(C)cc1CN(CCCl)CCCl,inconclusive: 89.1 µM
3,O=C(NCC1(N2CCOCC2)CCCCC1)c1cc2ccccc2o1,inconclusive: 3.16 µM
4,O=C(NCC1(N2CCOCC2)CCCCC1)c1ccccc1Br,inconclusive: 89.1 µM
5,CC(C)c1ccc(NC2CCN(C(=O)OC(C)(C)C)CC2)cc1,inconclusive: 44.7 µM
6,O=C(NCC1(N2CCOCC2)CCCCC1)c1cc(=O)[nH]c2ccccc12,inconclusive: 44.7 µM
7,COc1ccc(NC2CCN(C(=O)OC(C)(C)C)CC2)cc1,inconclusive: 79.4 µM
8,CCCOc1ccc(C)cc1CN(CCCl)CCCl,inconclusive: 89.1 µM
9,CN1CCC(Nc2ccc(F)c(Cl)c2)CC1,inconclusive: 89.1 µM
